PubChem BioAssay AID1159578, Peter MacCallum Cancer Centre, 2015
The whole screen tested about 18,000 reagents; below is a part drawn at random. About 1,030 of them (5.7%) count as active. 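Inactive calls also include pools with fewer than 3300 nuclei, whose migration was not assessed.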 Raw values are not corrected between plates. Unmarked entries are inactive. Further read-outs or replicates are left out here.

Screen: 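siRNA pools altering how lymphatic endothelial cells close a scratch wound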 (primary screen)
Cells: human lymphatic endothelial cells
Knock-down reagent: siRNA pool against human genes, 40 nM
Timing: 48 h after transfection
Measurement: 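Cells stained with dye and imaged after a scratch; covered wound area and nuclei counted, duplicates averaged, migration set against mock wells and turned into a robust z-score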
Reading the numbers: migration robust z-score: higher = faster migration into the scratch; nuclei per well: higher = more cells in the well
Call rule: 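Migration changed when robust z exceeds 2 or falls below -2 and mean nuclei number is at least 3300; otherwise not called changed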
Calls: active = migration changed; inactive = no migration change, or too few cells

PSORS1C2 (psoriasis susceptibility 1 candidate 2) showed migration robust z-score -0.33; migration class with cell-count check migration z between -2 and 2; enough cells; nuclei per well, duplicate mean 5601.
Silencing of ERI1 (exoribonuclease 1) gave: migration robust z-score 0.16; migration class with cell-count check migration z between -2 and 2; enough cells; nuclei per well, duplicate mean 6429.
Depletion of CXCL2 (C-X-C motif chemokine ligand 2) resulted in: migration robust z-score -0.33; migration class with cell-count check migration z between -2 and 2; enough cells; nuclei per well, duplicate mean 5930.
PPP1R11 (protein phosphatase 1 regulatory inhibitor subunit 11) gave migration robust z-score 0.51; migration class with cell-count check migration z between -2 and 2; enough cells; nuclei per well, duplicate mean 4907.
For ANAPC2 (anaphase promoting complex subunit 2) the deposit lists migration robust z-score 0.7; migration class with cell-count check migration z between -2 and 2; enough cells; nuclei per well, duplicate mean 6078.
Against LRPAP1 (LDL receptor related protein associated protein 1), the entry reads migration robust z-score 1.12; migration class with cell-count check migration z between -2 and 2; enough cells; nuclei per well, duplicate mean 6964.
NBPF3 (NBPF member 3) gave migration robust z-score -0.84; migration class with cell-count check migration z between -2 and 2; enough cells; nuclei per well, duplicate mean 5622.
With knock-down of TSSK3 (testis specific serine kinase 3), the screen gave migration robust z-score -2.26 (active); migration class with cell-count check migration z below -2; enough cells; nuclei per well, duplicate mean 4278.
Knock-down of SPECC1 gave: migration robust z-score 1.1; migration class with cell-count check migration z between -2 and 2; enough cells; nuclei per well, duplicate mean 6219.
Depletion of SERPINA11 (serpin family A member 11) resulted in: migration robust z-score -0.2; migration class with cell-count check migration z between -2 and 2; enough cells; nuclei per well, duplicate mean 3730.
Depletion of BARX1 (BARX homeobox 1) resulted in: migration robust z-score -0.91; migration class with cell-count check migration z between -2 and 2; enough cells; nuclei per well, duplicate mean 3610.
With knock-down of SP6 (Sp6 transcription factor), the screen gave migration robust z-score -0.83; migration class with cell-count check migration z between -2 and 2; enough cells; nuclei per well, duplicate mean 5189.
Silencing of RNF181 (ring finger protein 181) came out at: migration robust z-score -0.6; migration class with cell-count check migration z between -2 and 2; enough cells; nuclei per well, duplicate mean 6214.
After knock-down of GPR137 (G protein-coupled receptor 137), the screen gave migration robust z-score -0.1; migration class with cell-count check migration z between -2 and 2; enough cells; nuclei per well, duplicate mean 6760.
After knock-down of ADAM21 (ADAM metallopeptidase domain 21), the screen gave migration robust z-score 1.92; migration class with cell-count check migration z between -2 and 2; enough cells; nuclei per well, duplicate mean 5320.
Against LLGL2 (LLGL scribble cell polarity complex component 2), the entry reads migration robust z-score 0.91; migration class with cell-count check migration z between -2 and 2; enough cells; nuclei per well, duplicate mean 5020.
With knock-down of CARNMT1 (carnosine N-methyltransferase 1) the results were migration robust z-score -0.15; migration class with cell-count check migration z between -2 and 2; enough cells; nuclei per well, duplicate mean 6556.
With knock-down of PTTG1 the results were migration robust z-score 0.03; migration class with cell-count check migration z between -2 and 2; enough cells; nuclei per well, duplicate mean 4464.
Knock-down of GPR22 (G protein-coupled receptor 22) came out at: migration robust z-score 0.1; migration class with cell-count check migration z between -2 and 2; enough cells; nuclei per well, duplicate mean 6802.
SAA2 (serum amyloid A2) showed migration robust z-score -0.42; migration class with cell-count check migration z between -2 and 2; enough cells; nuclei per well, duplicate mean 5490.
RAB40AL (RAB40A like) showed migration robust z-score -1.12; migration class with cell-count check migration z between -2 and 2; enough cells; nuclei per well, duplicate mean 5266.

Ordered by “nuclei per well, duplicate mean” (high to low): 3 of the entries above
LRPAP1 (LDL receptor related protein associated protein 1) → migration robust z-score: 1.12; migration class with cell-count check: migration z between -2 and 2; enough cells; nuclei per well, duplicate mean: 6964
NBPF3 (NBPF member 3) → migration robust z-score: -0.84; migration class with cell-count check: migration z between -2 and 2; enough cells; nuclei per well, duplicate mean: 5622
TSSK3 (testis specific serine kinase 3) → migration robust z-score: -2.26 (active); migration class with cell-count check: migration z below -2; enough cells; nuclei per well, duplicate mean: 4278
